Structures can show the parent of a compound that is named as a salt. The list shows a part of the results. Repeats in this data set agree poorly, so a single value says little.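 In a drug-repurposing library screen, luminescence reads luciferase driven by eight TEAD-binding elements, stably integrated into human kidney-derived cells. Compounds scoring over five robust Z scores above the plate mean are called hits.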
System: HEK293A TEAD-LUC reporter
Assay: TEAD-luciferase reporter activity (YAP activation), robust Z score vs plate; higher = stronger YAP/TEAD activation
Settings: 24 h

Structure (SMILES)	TEAD-luciferase reporter activity (compound concentration: 200 nM)	TEAD-luciferase reporter activity (compound concentration: 2 uM)	TEAD-luciferase reporter activity (compound concentration: 10 uM)
COc1ccc2c3c([nH]c2c1)[C@H](C=C(C)C)N1C(=O)[C@@H]2CCCN2C(=O)[C@@H]1C3 [Fumitremorgin C]	inactive: -1.03	inactive: -0.521	inactive: 1.97
CC12CC[C@@H]3C4CCC(=O)C=C4CCC3[C@@H]1CC[C@@H]2OC(=O)C12C[C@H]3C[C@@H](C1)C[C@@H](C2)C3 (some centres not stated)	inactive: 3.87	inactive: -0.0921	inactive: -0.345
CNCC/C=C/c1cccnc1 [Rivanicline]		inactive: -1.12	
CNCC/C=C/c1cccnc1	inactive: 2.38		inactive: -0.558
CN1[C@@H]2CC[C@H]1C[C@@H](OC(=O)C(c1ccccc1)c1ccccc1)C2	inactive: -0.535	inactive: 0.0795	inactive: 0.93
CN(C)Cc1nnc2n1-c1ccc(Cl)cc1C(c1ccccc1)=NC2 [adinazolam mesylate]	inactive: -0.643	inactive: -0.991	inactive: -1.47
C1=CCC(c2cccnc2)NC1 (configuration not stated)	inactive: 1.91	inactive: -0.833	inactive: -0.754
c1cnc2c([O][Ga]([O]c3cccc4cccnc34)[O]c3cccc4cccnc34)cccc2c1	inactive: 0.0896	inactive: -1.61	inactive: -2.21
C[C@@H]1CC[C@H]2[C@@H](C)C(=O)O[C@@H]3O[C@@]4(C)CC[C@@H]1[C@]32OO4 [Artemisinin]	inactive: -0.677		inactive: 1.57
C[C@@H]1CC[C@H]2[C@@H](C)C(=O)O[C@@H]3O[C@@]4(C)CC[C@@H]1[C@]32OO4 [artemisinin]		inactive: -0.00617	
Cc1cc(O)ccc1Cl [4-Chloro-3-methylphenol]	inactive: 0.216		inactive: -1.19
Cc1cc(O)ccc1Cl		inactive: -0.169	
CCOCCN1CCC(OC(=O)CC)(c2ccccc2)CC1 [Prosidol]	inactive: 1.12	inactive: 0.77	inactive: -0.0955
COc1ccc2c(c1)CC(CN1CCC3(CC1)C(=O)NCN3c1ccccc1)O2 (configuration not stated)	inactive: -0.346	inactive: -0.703	inactive: 0.604
Cc1ncccc1OCC1CCCN1 (configuration not stated) [Pozanicline hydrochloride]	inactive: -0.179	inactive: -0.18	inactive: 0.305
C=CCN1CC[C@]23c4c5ccc(O)c4O[C@H]2[C@@H](OCCOCCOCCOCCOCCOCCOCCOC)CC[C@@]3(O)[C@H]1C5 [Naloxegol (oxalate)]	inactive: -0.652	inactive: -1.55	inactive: 1.9
Cc1cc(C)cc(C(=O)OC2CC3CCC(C2)N3C)c1 (configuration not stated) [tropanserin]	active: 6.25	inactive: -1.36	inactive: -0.373
CC(N)Cc1cccc(O)c1 (configuration not stated) [gepefrine]	inactive: -1.19	inactive: 0.0198	inactive: -0.63
CO[C@H]1[C@H](O)C[C@H](O[C@@H]2C[C@H](Oc3cc4cc5c(c(O)c4c(O)c3C)C(=O)[C@@H](O[C@H]3C[C@@H](OC4C[C@@H](O[C@H]6C[C@](C)(O)[C@H](OC(C)=O)[C@@H](C)O6)[C@@H](O)[C@@H](C)O4)[C@H](O)[C@@H](C)O3)[C@H]([C@H](OC)C(=O)[C@@H](O)[C@@H](C)O)C5)O[C@H](C)[C@H]2OC(C)=O)O[C@@H]1C (some centres not stated)	inactive: -2.01	inactive: -2.22	inactive: -2.94
CN1C2CCC1CC(NC(=O)c1c[nH]c3ncccc13)C2 (configuration not stated)	inactive: -1.42	inactive: 0.701	inactive: -0.505
CN1C(=O)CN2CCOC2(c2ccccc2F)c2cc(Cl)ccc21 (configuration not stated)	inactive: -1.55	inactive: -0.254	inactive: 3.29
CC12CC[C@H](O)CC1=C[C@H](O)[C@@H]1[C@@H]2CCC2(C)[C@@H](O)CC[C@@H]12 (some centres not stated)	inactive: -1.87	inactive: -1.29	inactive: -0.636
CCOP(=S)(Oc1cccnc1)c1ccccc1 (configuration not stated)	inactive: 1.01	inactive: -0.958	inactive: -1.64
CC1OC(O[C@H]2CC[C@@]3(C=O)[C@H](CC[C@@H]4[C@@H]3CC[C@]3(C)[C@@H](C5=CC(=O)OC5)CC[C@]43O)C2)C(O)C(O)C1O (some centres not stated)	inactive: 3.97	inactive: 4.56	active: 23.4
COc1cc(C2c3cc4c(cc3C(CCN(C)CCN(C)C)C3COC(=O)C23)OCO4)cc(OC)c1O (configuration not stated)	inactive: -0.648	inactive: -1.42	inactive: -0.905
CCOC(=O)C(C(=O)OC1CC2CCC(C1)[N+]2(C)C)c1ccccc1 (configuration not stated)	inactive: -0.634	inactive: -1.31	inactive: 0.683
CCC1(C2=CCCCC2)C(=O)NC(=O)NC1=O	inactive: -0.0998	inactive: -0.373	inactive: -1.08

Given bar-delimited: entries from further up.
Structure (SMILES) | TEAD-luciferase reporter activity (compound concentration: 200 nM) | TEAD-luciferase reporter activity (compound concentration: 2 uM) | TEAD-luciferase reporter activity (compound concentration: 10 uM)
CNCC/C=C/c1cccnc1 [Rivanicline] |  | inactive: -1.12 | 
CNCC/C=C/c1cccnc1 | inactive: 2.38 |  | inactive: -0.558
CN1[C@@H]2CC[C@H]1C[C@@H](OC(=O)C(c1ccccc1)c1ccccc1)C2 | inactive: -0.535 | inactive: 0.0795 | inactive: 0.93
CN(C)Cc1nnc2n1-c1ccc(Cl)cc1C(c1ccccc1)=NC2 [adinazolam mesylate] | inactive: -0.643 | inactive: -0.991 | inactive: -1.47
C1=CCC(c2cccnc2)NC1 (configuration not stated) | inactive: 1.91 | inactive: -0.833 | inactive: -0.754

Continued:

Structure (SMILES)	TEAD-luciferase reporter activity (compound concentration: 200 nM)	TEAD-luciferase reporter activity (compound concentration: 2 uM)	TEAD-luciferase reporter activity (compound concentration: 10 uM)
CO[C@]12CC[C@@]3(C[C@@H]1[C@](C)(O)C(C)(C)C)[C@H]1Cc4ccc(O)c5c4[C@@]3(CCN1CC1CC1)[C@H]2O5 [Buprenorphine Hydrochloride]	inactive: -0.191		inactive: -0.766
COc1cccc2c1[C@]13CCN(CC4CC4)[C@H](C2)[C@]1(OC)CCC(=O)C3 [cyprodime]	inactive: -0.0122	inactive: -0.726	inactive: 0.856
CCN(CC)CC#CC(C)(C)OC(=O)C(O)(c1ccccc1)C1CCCCC1 (configuration not stated)	inactive: 0.297	inactive: 0.567	inactive: 0.811
COc1ccc(C2(C#N)CCN(CC(=O)NO)CC2)cc1OC1CCCC1	inactive: -1.21	inactive: 0.108	active: 6.27
CS(=O)CCCCN=C=S (configuration not stated) [Sulforaphane]	inactive: -0.672	active: 5.7	inactive: -0.203
Cc1ccc(CCc2c(CCN)ccc(O)c2O)cc1O	inactive: 1.91	inactive: 0.0951	inactive: -0.214
Cc1noc(C)c1C(=O)N1C2CCC1CN(C(C)C)C2	inactive: 0.499		inactive: -1.25
CCP(=O)(O)CCCN	inactive: -1.23	inactive: 0.0259	inactive: -2.26
Oc1ccc2c(c1)[C@@]13CCCC[C@@]1(O)[C@@H](C2)N(CC1CCC1)CC3 [Butorphanol-(+)-Tartrate (Schedule Iv)]	inactive: 2.74		inactive: -2.42
NC(=O)OCC(O)c1ccccc1 (configuration not stated)	inactive: -0.49	inactive: -0.772	inactive: -0.0224
CC(C)CC(NC(=O)C(Cc1ccccc1)NC(=O)CNC(=O)[C@H](C)NC(=O)C(N)Cc1ccc(O)cc1)C(=O)N[C@H](CCCNC(=N)N)C(=O)O (some centres not stated) [Dalargin]	inactive: -1.03	inactive: 0.208	inactive: 1.75
O=C(C1CCCN1C(=O)Nc1ccc(Cl)cc1)N1CCC(N2Cc3ccccc3C2=O)CC1 (configuration not stated)	active: 5.87		inactive: 0.487
CCS(=O)(=O)NC1CC2(C)OC1(C)C1C(=O)N(c3ccc(C#N)c(C(F)(F)F)c3)C(=O)C12 (configuration not stated)	inactive: -1.71	inactive: 3.13	inactive: 3.92
CC(C)=CCC[C@]1(C)C=Cc2c(O)c3c(c(CC=C(C)C)c2O1)O[C@]12C(=C[C@@H]4C[C@H]1C(C)(C)O[C@@]2(C/C=C(/C)C(=O)O)C4=O)C3=O [Gambogic acid]	inactive: -0.632	inactive: 0.95	active: 9.61
CNCC(=O)c1ccc(O)c(O)c1	inactive: -0.765	inactive: -0.487	inactive: -0.848
N=C(NCCC[C@H](N)C(=O)O)N[N+](=O)[O-] [NG-nitro-arginine]	inactive: -0.561		inactive: 0.0351
CCCCN1C(=O)C(=C/C=C/C=C2\Oc3ccccc3N2CCCS(=O)(=O)O)C(=O)N(CCCC)C1=S	inactive: -2.87	inactive: -1.55	inactive: -0.0429
O=C1Nc2ccccc2C(C(=O)NC2CN3CCC2CC3)c2ccccc21 (configuration not stated)	inactive: -1.41	inactive: -1.12	inactive: 1.67
C=C1CC[C@@]2(O)C3Cc4ccc(O)c5c4[C@@]2(CCN3CC2CC2)[C@H]1O5 [nalmefene]	inactive: 2.17	inactive: -1.02	inactive: -0.239
CC1(C)CN[Se]c2ccccc21	inactive: 0.563	inactive: -0.795	inactive: -0.961
CN(C)C(=O)c1nc(CNC(=O)CN)n(-c2ccc(Cl)cc2C(=O)c2ccccc2Cl)n1	inactive: -0.721	inactive: -0.366	inactive: -0.877
O=C(C1CCCN1C(=O)Cc1ccc(F)cc1)N1CCC(N2Cc3ccccc3C2=O)CC1 (configuration not stated)	inactive: -0.994		inactive: 4.1
COc1ccc2c(c[n+](C)c3c4cc5c(cc4ccc23)OCO5)c1OC [chelerythrine]	inactive: 2.35	inactive: 4.41	active: 6.84
CN/C(=N/S(=O)(=O)c1ccc(Cl)cc1)N1CC(c2ccccc2)C(c2ccc(Cl)cc2)=N1 (configuration not stated) [Ibipinabant]	inactive: 0.257	inactive: -0.896	inactive: 0.862
CC[C@H]1CC2CN3CCc4c([nH]c5ccccc45)[C@](C(=O)OC)(C2)C13 [Coronaridine]	inactive: -1.62	inactive: 2.34	inactive: 1.27
C[N+]1(CC2CC2)CC[C@]23c4c5ccc(O)c4O[C@H]2C(=O)CC[C@@]3(O)[C@H]1C5 (some centres not stated) [Methylnaltrexone (Bromide)]	inactive: -0.888	inactive: 0.000251	inactive: -0.884
Oc1c(Br)cc(Br)cc1Br	inactive: 1.66	inactive: 0.221	inactive: -1.08
